Measurements from “University of Dundee, Small-Polar-MMV Screening Library” (2021), ChEMBL document CHEMBL3988442.

Protein sequences, listed by entry. Tags and fused reporters are not part of them.
UniProt I6X8D2, whole entry: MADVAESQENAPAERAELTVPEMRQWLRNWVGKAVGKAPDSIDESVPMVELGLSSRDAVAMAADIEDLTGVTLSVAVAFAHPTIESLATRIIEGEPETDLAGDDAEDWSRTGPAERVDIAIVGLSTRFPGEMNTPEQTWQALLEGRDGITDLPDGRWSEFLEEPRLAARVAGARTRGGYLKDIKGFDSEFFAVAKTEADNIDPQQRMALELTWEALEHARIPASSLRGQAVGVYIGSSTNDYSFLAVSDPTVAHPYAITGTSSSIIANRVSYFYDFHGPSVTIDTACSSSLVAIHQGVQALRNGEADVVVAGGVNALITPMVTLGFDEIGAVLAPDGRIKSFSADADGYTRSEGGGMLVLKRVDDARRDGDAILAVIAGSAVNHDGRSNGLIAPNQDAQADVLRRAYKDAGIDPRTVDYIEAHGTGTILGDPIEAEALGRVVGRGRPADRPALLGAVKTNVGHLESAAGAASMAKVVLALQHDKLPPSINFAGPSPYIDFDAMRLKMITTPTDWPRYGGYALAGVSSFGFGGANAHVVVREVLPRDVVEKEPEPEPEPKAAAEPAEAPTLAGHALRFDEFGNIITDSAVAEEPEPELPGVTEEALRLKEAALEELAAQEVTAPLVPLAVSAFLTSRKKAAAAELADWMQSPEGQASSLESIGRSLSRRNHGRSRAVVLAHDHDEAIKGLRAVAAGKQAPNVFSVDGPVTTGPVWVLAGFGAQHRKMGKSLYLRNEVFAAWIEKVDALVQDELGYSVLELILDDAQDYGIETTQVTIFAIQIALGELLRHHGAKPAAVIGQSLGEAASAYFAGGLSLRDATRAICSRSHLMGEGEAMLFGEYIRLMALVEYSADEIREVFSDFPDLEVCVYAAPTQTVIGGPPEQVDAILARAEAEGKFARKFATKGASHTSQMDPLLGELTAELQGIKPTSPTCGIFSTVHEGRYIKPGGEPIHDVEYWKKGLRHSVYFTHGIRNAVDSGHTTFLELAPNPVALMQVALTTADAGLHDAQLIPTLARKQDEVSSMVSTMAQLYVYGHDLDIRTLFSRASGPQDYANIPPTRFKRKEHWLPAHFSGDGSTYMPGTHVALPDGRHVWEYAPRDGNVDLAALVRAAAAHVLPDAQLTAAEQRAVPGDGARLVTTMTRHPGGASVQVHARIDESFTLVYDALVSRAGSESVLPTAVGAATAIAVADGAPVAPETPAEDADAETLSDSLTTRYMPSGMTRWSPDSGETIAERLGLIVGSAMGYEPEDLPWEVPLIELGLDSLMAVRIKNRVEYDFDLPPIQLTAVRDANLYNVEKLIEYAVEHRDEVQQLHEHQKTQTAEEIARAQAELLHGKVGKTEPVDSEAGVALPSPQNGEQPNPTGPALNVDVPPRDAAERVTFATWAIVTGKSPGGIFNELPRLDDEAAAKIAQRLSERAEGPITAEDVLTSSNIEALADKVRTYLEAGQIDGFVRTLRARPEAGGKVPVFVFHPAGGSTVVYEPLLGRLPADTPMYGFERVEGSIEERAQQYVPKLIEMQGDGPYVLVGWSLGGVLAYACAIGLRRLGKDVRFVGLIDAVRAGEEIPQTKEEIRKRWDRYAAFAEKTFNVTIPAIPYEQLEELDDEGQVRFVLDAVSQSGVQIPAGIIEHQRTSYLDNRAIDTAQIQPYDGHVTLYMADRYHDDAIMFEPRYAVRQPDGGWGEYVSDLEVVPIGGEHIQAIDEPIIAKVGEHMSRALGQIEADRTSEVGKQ

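Polyketide synthase Pks13, Mycobacterium tuberculosis (UniProt I6X8D2). Enzyme assay of the thioesterase domain of polyketide synthase 13; the read-out is not stated. Concentration: 30 µM. The record gives no direction; the compounds picked for IC50 retests had high values, so higher reads as stronger inhibition. Of about 67,000 compounds tested this way, about 300 (0.46%) reached 50% or more in at least one test.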

Each number is a percent effect as filed. How 0% and 100% were set is not recorded. Most values in the screen are low, and negative values occur. This is an unselected part of the compounds tested.

Result for CC(C)CCN(C)Cc1nc2c(cnn2C)c(=O)[nH]1 was -21.84%.
Result for c1ccc(-c2nnc(N3CCCC4(CCOC4)C3)s2)cc1 (stereo unspecified) was 13.95%.
Result for O=C1NC2(CCNCC2)CC1c1ccncc1 (stereo unspecified) was -2.709%.
Result for COc1ccc(NC(=O)NCC(O)c2ccc(F)cc2F)c(OC)c1 (stereo unspecified) was -8.111%.
Result for CCC(=O)Nc1ccccc1Sc1nc(Br)nn1C was -1.047%.
Result for O=C(Nc1cccnc1)C1Cc2nc(-c3ccsc3)sc2N1CC1CC1 (stereo unspecified) was -36.72%.
Result for Cc1ccccc1CSc1nc(N)cc(N2C[C@H](O)[C@@H](N(C)C)C2)n1 was -26.81%.
Result for Cc1csc(CNC(=O)N2CCN(Cc3cc(C)on3)CC2)n1 was -6.738%.
Result for CC(C)Cc1cc(C(=O)NCCN2CCCS2(=O)=O)[nH]n1 was -10.43%.
Result for Cc1c[nH]c(CN2CC[C@@]3(O)CCN(C(=O)C4CCC4)C[C@H]3C2)n1 was -20.82%.
Result for COCCn1c(C(=O)NCC(C)C(=O)O)cc2ccccc21 (stereo unspecified) was -31.04%.
Result for COCCn1ccnc1C1CCCN(C(=O)CSc2nnc(C)o2)C1 (stereo unspecified) was -3.268%.
Result for CCOCCOC(C)C(=O)Nc1ccc2ccn(CCN(C)C)c2c1 (stereo unspecified) was -16.18%.
Result for C[C@H]1CN(c2ccccn2)C[C@@]12CCN(Cc1cccnc1)C2=O was 22.13%.
Result for CC(C)(C)NC(=O)Cn1c(=O)n(Cc2ccco2)c2ncccc21 was 9.064%.
Result for CN(C)CCNc1cc(-c2ncccc2O)c2cc[nH]c2n1 was -20.23%.
Result for CCS(=O)(=O)N1CCCC2(COCCN(c3cnccn3)C2)C1 (stereo unspecified) was -21.07%.
Result for COCCc1noc(CN2CCCCC2Cn2cncn2)n1 (stereo unspecified) was -23.25%.
Result for Cc1cc(CN(C)C(=O)c2ccc(N(C)C)nc2)no1 was -10.85%.
Result for CC(C)(C)c1ncc(C(=O)N2CCN(C(=O)c3ccc[nH]3)CC2)c(O)n1 was -15.72%.
Result for CCS(=O)(=O)NCC(=O)N1CC2(CCCC2)c2c(F)cccc21 was -34.22%.
Result for Cc1nnc2n1CCN(C(=O)c1cc(Br)c(Cl)[nH]1)C2 was -4.119%.
Result for O=C(c1cnccn1)N1CCCC(Cc2cccc3ncccc23)C1 (stereo unspecified) was 3.627%.
Result for O=C(NC1CCCC1)c1n[nH]c2c1CNCC2 was -7.407%.
Result for CN(Cc1ccco1)C(=O)CN1C(=O)c2cc(Cl)c(Cl)cc2C1=O was 3.627%.
Result for CC(C)c1nc(CS(=O)(=O)Cc2noc(C3CC3)n2)cs1 was -17.76%.
Result for CNC(=O)CN1CCC(c2nn(C)c(=O)n2-c2ccccc2)CC1 was -21.05%.
Result for CCc1ccc2nc(NCCOCCO)cc(C)c2c1 was -34.02%.
Result for CS(=O)(=O)c1ccc(NCc2ccccc2)cn1 was -22.78%.
Result for CNc1nc(C)c(C(=O)N2C[C@H]3CC[C@@H]2CN(c2cnccn2)C3)s1 was -9.06%.
Result for CC(C)c1cc(CN2CCNCC2)no1 was 18.9%.
Result for Cn1cc(CCNC(=O)CCc2ccc3c(c2)OCO3)cn1 was -4.723%.
Result for Cc1noc([C@@]23CCO[C@@H]2CCN(C(=O)c2ccsc2)C3)n1 was -23.86%.
Result for CSCCC1c2nc[nH]c2CCN1Cc1cc(Cl)ccc1O (stereo unspecified) was 0.4963%.
Result for Cc1nn(C)c2nc(N3CCCCC3c3cccnc3)sc12 (stereo unspecified) was 5.142%.
Result for CCCc1nnc2sc(C3CCN(C4CCN(C)CC4)CC3)nn12 was -24.13%.
Result for CSCc1nc(CNC(=O)C2CCCN(CC(N)=O)C2)cs1 (stereo unspecified) was 2.165%.
Result for CN(C)CCOc1ccc(N(C)S(=O)(=O)c2cnn(C)c2)cc1 was -15.91%.
Result for Cc1noc(C)c1CCC(=O)NCC1(O)CCN(c2ccccn2)C1 (stereo unspecified) was 1.814%.
Result for CCOc1nnc(CN2CCC(c3nc4ccccc4[nH]3)CC2)s1 was -11.49%.

2 of the entries, repeated:

Cc1cc(CN(C)C(=O)c2ccc(N(C)C)nc2)no1 gave -10.85%.
Cc1nn(C)c2nc(N3CCCCC3c3cccnc3)sc12 (stereo unspecified) gave 5.142%.